Data as given in PubChem BioAssay AID1053208 (Peter MacCallum Cancer Centre, 2014)

Assay: 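Synthetic lethal interactions between gene loss and doxorubicin in osteosarcoma cells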 (primary screen)
Cell system: mouse osteosarcoma cells, early-passage culture from an engineered mouse model of fibroblastic bone tumour
Reagent: siRNA pool against mouse genes, 40 nM
Timing: about 120 h (48 h before drug, then 72 h with drug)
Treatment: doxorubicin 100 nM for 72 h, roughly 30-40% inhibitory dose
Measurement: 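Viability read as ATP luminescence after 72 h of 100 nM doxorubicin or none, duplicate wells averaged, scaled to non-targeting siRNA, then expressed as robust z-scores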
Direction: viability z-score with doxorubicin: higher = more viable cells under doxorubicin; viability z-score without drug: higher = more viable cells with knock-down alone
Hit rule: 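Called active if knock-down leaves viability unchanged without drug (z within -2 to 2) but lowers it with doxorubicin (z at or under -2)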
This is one part, drawn at random, of about 17,000 reagents tested. Of all reagents, 788 (4.7%) were called active. 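Calls rest on z-score classes alone; an extra cut-off of viability at most 70% of control was not applied to them.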 The numbers tell different reagents against one gene apart. Further read-outs or replicates are left out here. No sequences are given here.

target	pool no.	combined z-score class	viability z-score with doxorubicin	viability z-score without drug	call
Hypk	1	no change with or without drug	0.9	1.18	inactive
Or11h7	1	no change with or without drug	-1.12	0.84	inactive
Arhgef1	1	no change with or without drug	-0.9	0.84	inactive
Kcnip3	1	no change with or without drug	-0.34	1.85	inactive
Phc3	1	no change with or without drug	-1.46	-0.84	inactive
Eva1a	1	no change with or without drug	0.45	-0.51	inactive
Tanc2	1	no change with or without drug	0	0.84	inactive
C1ql1	1	no change with or without drug	1.12	-0.84	inactive
Eif1ax	1	no change with or without drug	0.34	0.84	inactive
Hspa8	1	low cell count with and without drug	-5.4	-5.06	inactive
Arid1a	1	no change with or without drug	-1.57	0.17	inactive
Ighg3	1	no change with or without drug	-0.67	-0.51	inactive
Acin1	1	no change with or without drug	-1.8	-1.01	inactive
Nmt1	1	no change with or without drug	0.11	-0.51	inactive
Trappc11	1	no change with or without drug	0.9	1.18	inactive
Enc1	1	no change with or without drug	-0.34	-1.01	inactive
Srr	1	no change with or without drug	1.12	0.34	inactive
Lrrc42	1	no change with or without drug	0.34	1.18	inactive
Or2a14	1	no change with or without drug	-0.22	-0.84	inactive
Sox7	1	no change with or without drug	1.01	-0.51	inactive
C630007C17RIK	1	no change with or without drug	0.9	0.84	inactive
Trim12c	1	no change with or without drug	0.45	0.67	inactive
Zup1	1	no change with or without drug	1.35	0.67	inactive
9330175E14Rik	1	no change with or without drug	0.11	0	inactive
9330175E14Rik	2	no change with or without drug	-0.34	-0.51	inactive
Kcnh1	1	no change with or without drug	-0.34	1.01	inactive
Scgb1a1	1	no change with or without drug	0.9	-0.51	inactive
Ung	1	low cell count with doxorubicin only	-2.02	-1.18	active
Smarcc1	1	no change with or without drug	0.22	0.17	inactive
Med14	1	low cell count with and without drug	-5.06	-2.19	inactive
Commd9	1	no change with or without drug	0.9	0.17	inactive
Kcnu1	1	no change with or without drug	-1.35	-1.52	inactive
Ptp4a2	1	no change with or without drug	1.57	1.52	inactive
Thoc5	1	high cell count with doxorubicin only	2.02	1.52	inactive

Laid out differently: entries from further up
{"target": "Sox7", "pool no.": 1, "combined z-score class": "no change with or without drug", "viability z-score with doxorubicin": 1.01, "viability z-score without drug": -0.51, "call": "inactive"}
{"target": "C630007C17RIK", "pool no.": 1, "combined z-score class": "no change with or without drug", "viability z-score with doxorubicin": 0.9, "viability z-score without drug": 0.84, "call": "inactive"}
{"target": "Trim12c", "pool no.": 1, "combined z-score class": "no change with or without drug", "viability z-score with doxorubicin": 0.45, "viability z-score without drug": 0.67, "call": "inactive"}
